Source: paper PMC11784460
Results are given in words; binding and its absence hold for the method and conditions named. In cells and extracts the contact can be indirect. Some binding calls cover weakened binding; strength is not graded here. For some of these results: Sequences can lack the tags named with a protein. One block for each molecule: values may come before it.

By UniProt entry, the sequences of proteins in these tests, tags left out.
UniProt A5A8Y3: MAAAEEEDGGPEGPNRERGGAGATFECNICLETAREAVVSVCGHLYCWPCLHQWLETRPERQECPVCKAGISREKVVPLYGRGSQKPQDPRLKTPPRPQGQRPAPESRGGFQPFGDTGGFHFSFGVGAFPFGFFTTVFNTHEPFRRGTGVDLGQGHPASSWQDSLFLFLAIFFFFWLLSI
UniProt Q99942: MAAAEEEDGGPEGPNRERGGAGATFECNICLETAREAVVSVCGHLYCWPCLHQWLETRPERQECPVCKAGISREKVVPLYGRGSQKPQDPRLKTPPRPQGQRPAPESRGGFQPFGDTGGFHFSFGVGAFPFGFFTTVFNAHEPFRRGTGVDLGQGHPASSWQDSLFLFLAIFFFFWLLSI

Tests used:
[1] = molecular target: endogenous sRNF5 (Sus scrofa (endogenous in PK15)) (UniProt A5A8Y3); test: co-IP; endogenous proteins in PK15 lysate; mouse monoclonal RNF5 antibody on Protein A+G magnetic beads as bait antibody, normal mouse IgG as negative control
[2] = molecular target: Flag-sRNF5 (Sus scrofa RING finger protein 5) (Sus scrofa) (UniProt A5A8Y3); test: co-IP; PK15 cells cotransfected 24 h; lysate (20 mM Tris pH 7.4, 150 mM NaCl, 1% Triton X-100, 1% sodium deoxycholate) immunoprecipitated with Flag M2 on Protein A+G magnetic beads, 4°C, 12 h; blot anti-Flag and anti-GFP
sRNF5-YN (Sus scrofa) = sRNF5-YN (Sus scrofa) (UniProt A5A8Y3); test: split reporter; BiFC with YN (aa 1-155 of YFP) and YC (aa 156-239 of YFP) fusions in living PK15 cells, 24 h after transfection, confocal microscopy
[3] = molecular target: Flag-hRNF5 (Homo sapiens RING finger protein 5) (Homo sapiens) (UniProt Q99942); test: co-IP

Molecule: sABHD16A-EGFP (Sus scrofa alpha/beta-hydrolase domain-containing 16A) (from UniProt A0A287AWB5 1-558)
binding [2]: binds

Molecule: sABHD16A-YC (from UniProt A0A287AWB5 1-558)
binding (sRNF5-YN (Sus scrofa)): binds

More lines, now with the values ahead:

binding [1]: binds
Molecule: endogenous sABHD16A (from UniProt A0A287AWB5 1-558)

binding [3]: binds
B1: hABHD16A-EGFP (Homo sapiens alpha/beta-hydrolase domain-containing 16A) (protein, UniProt O95870 1-558)
chain: MAKLLSCVLGPRLYKIYRERDSERAPASVPETPTAVTAPHSSSWDTYYQPRALEKHADSILALASVFWSISYYSSPFAFFYLYRKGYLSLSKVVPFSHYAGTLLLLLAGVACLRGIGRWTNPQYRQFITILEATHRNQSSENKRQLANYNFDFRSWPVDFHWEEPSSRKESRGGPSRRGVALLRPEPLHRGTADTLLNRVKKLPCQITSYLVAHTLGRRMLYPGSVYLLQKALMPVLLQGQARLVEECNGRRAKLLACDGNEIDTMFVDRRGTAEPQGQKLVICCEGNAGFYEVGCVSTPLEAGYSVLGWNHPGFAGSTGVPFPQNEANAMDVVVQFAIHRLGFQPQDIIIYAWSIGGFTATWAAMSYPDVSAMILDASFDDLVPLALKVMPDSWRGLVTRTVRQHLNLNNAEQLCRYQGPVLLIRRTKDEIITTTVPEDIMSNRGNDLLLKLLQHRYPRVMAEEGLRVVRQWLEASSQLEEASIYSRWEVEEDWCLSVLRSYQAEHGPDFPWSVGEDMSADGRRQLALFLARKHLHNFEATHCTPLPAQNFQMPWHL
